Experimental data from paper PMC4838231.
Results are given in words; binding and its absence hold for the method and conditions named. For part of these data: Binding seen in cells or lysates may run through a third protein. For part of these data: A result given as binding can be weak or reduced; the word gives no strength. Sequences can lack the tags named with a protein.

How the values were obtained:
[1] = molecular target: PMT-Venus-Rho3^Q74L (from pVC1-PMT-RHO3^Q74L) (S. cerevisiae); experiment: split reporter; BiFC with Venus-N (pVN1) and Venus-C (pVC1) fusions under the MET25 promoter in strain JGY3088 (kin1Δ kin2Δ); SC-His-Ura plate, 30°C, 16 hr; green fluorescence by microscopy
[2] = molecular target: Kin2-N1 (N-terminal region of Kin2), Gal4 DNA-binding domain fusion (S. cerevisiae); experiment: two-hybrid; directed assay: pJ69-4α with pGBDU-C1-based baits mated with pJ69-4A with pOAD- or pGAD-based preys; growth of diploids on SC-Leu-Ura-His (with 3 mM 3-AT for Bmh1) or SC-Leu-Ura-Ade at 30°C for 3 days

Binder | binding [1] | binding [2]
Kin2-C9 (a.a. 882–1147, TD2 domain), Venus-N fusion from pVN1-KIN2-C9 (domain or fragment, UniProt P13186 882-1147) RLTSVYSQELTEKQILEEASKAPPGSMPSIDYPKSMFLKGFFSVQTTSSKPLPIVRHNIISVLTRMNIDFKEVKGGFICVQQRPSIETAAVPVITTTGVGLDSGKAMDLQNSLDSQLSSSYHSTASSASRNSSIKRQGSYKRGQNNIPLTPLATNTHQRNSSIPMSPNYGNQSNGTSGELSSMSLDYVQQQDDILTTSRAQNINNVNGQTEQTNTSGIKERPPIKFEIHIVKVRIVGLAGVHFKKVSGNTWLYKELASYILKELNL | binds | 
Cdc11^72-415 (N-terminally truncated Cdc11), Gal4 activation domain fusion from pOAD (domain or fragment, UniProt P32458 72-415) TVELEDDEGVKIQLNIIDTPGFGDSLDNSPSFEIISDYIRHQYDEILLEESRVRRNPRFKDGRVHCCLYLINPTGHGLKEIDVEFIRQLGSLVNIIPVISKSDSLTRDELKLNKKLIMEDIDRWNLPIYNFPFDEDEISDEDYETNMYLRTLLPFAIIGSNEVYEMGGDVGTIRGRKYPWGILDVEDSSISDFVILRNALLISHLHDLKNYTHEILYERYRTEALSGESVAAESIRPNLTKLNGSSSSSTTTRRNTNPFKQSNNINNDVLNPASDMHGQSTGENNETYMTREEQIRLEEERLKAFEERVQQELLLKRQELLQREKELREIEARLEKEAKIKQEE |  | no binding
Pea2 (Gal4 activation domain fusion from pGAD-PEA2) (protein, UniProt P40091 1-420) MHKFDLELSRRANPLLFSAERYEEYPLKYDELKQYLLSQNPSHPHHNSRPYTSIDYFDYLLYRSKNDESEIDLDKKLVSEFALYYVQKEHLNSDDLNPTLNELLKLQPKSADWYEMMLRILESINTTGIDQLTKENNNSFPNSKRARSSTNMGGTDKFNKGAYHTDKADDDKNEILQELTSFLMSNSIQKGIDIKPIPLDDPVKFLKNGINSILDTCVSLEKNTSSPPISPNAAAIQEEDSSKKLEELETAFSDLQLAHNFLTKQFENDRAEYVQDIEKLTRTNRELQDKLLNNHSNLSKTEKKLHELEQENKELEKANNKLNSSRHNFGMSSPASSPVTWDPSSPSSVGSPTSGSGSRSLSIMTSEFKKVLTSTQRKYEKELSDEREHRFKLERELALLKNAEANTSLALNRDDPPDML |  | no binding
